From PubChem BioAssay AID434947 (Broad Institute, 2010)
Screen size: about 2,200 compounds; about 15 (0.7%) were called active.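 How the source made its calls: active means fitted half-maximal concentration for loss of luminescence signal no more than a set limit of log units above the top tested concentration; inconclusive means flat fit with 30 to 70% signal loss, or invalid fit; inactive means half-maximal concentration above that set limit.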 The list shows a part of the results.

test: inhibitors of ADP-Glo detection reagents, dose response, artefact control for GSK3beta inhibitor project, biochemical, luminescence, cell-free, homogeneous (AID 434947); conditions: 5 uM ADP;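 further: kinase-free counter screen of ADP-Glo detection reagents for GSK3beta hits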

EC50, inactive:
O=c1cc(-c2ccncc2)oc2ccccc12 > 30 µM, COC(=O)c1cc(C(=O)Nc2cc(C)ccn2)cc([N+](=O)[O-])c1 > 30 µM, c1ccc(CSc2ccc3nnc(-c4ccccn4)n3n2)cc1 > 30 µM, COc1ccccc1N(CC(=O)N1CCc2ccccc2C1)S(C)(=O)=O > 30 µM, O=C(Cc1ccc([N+](=O)[O-])cc1)Nc1ccc2c(c1)C(=O)NC2=O > 30 µM, CC1CN(c2nc(Nc3ccccc3)nc(N)c2[N+](=O)[O-])CC(C)O1 (stereo unspecified) > 30 µM, CC(C)(C)C(=O)COC(=O)c1ccc(O)cc1 > 30 µM, O=C(C1CCCN(S(=O)(=O)c2ccccc2)C1)N1CCN(c2ncccn2)CC1 (stereo unspecified) > 30 µM, COc1cccc(OC)c1OCCNCC1COc2ccccc2O1 (stereo unspecified) > 30 µM, CCOC(=O)C1CCN(c2cc(C)nc3ccc(OC)cc23)CC1 > 30 µM, Cc1ccc(NC(=O)C2CCN(S(=O)(=O)c3ccc4c(c3)NC(=O)C(C)S4)CC2)c(Cl)c1 (stereo unspecified) > 30 µM, Nc1nc(NCc2ccccc2)nc(Nc2cccc(F)c2)c1[N+](=O)[O-] > 30 µM, O=C(CN(Cc1ccc(F)cc1)C(=O)CCC(=O)Nc1ccccn1)NCc1ccc(F)cc1 > 30 µM, O=C(Cc1ccc(F)cc1)N/N=C/c1ccc(-c2ccc(Cl)c(C(=O)O)c2)o1 > 30 µM, COc1ccc(N2C(=O)C3CCCN3C2c2ccccc2F)cc1 (stereo unspecified) > 30 µM, O=C(CN(Cc1cccs1)C(=O)CCC(=O)Nc1nccs1)NCc1ccccc1 > 30 µM, CCOC(=O)C1=C(C)Nc2ncnn2C1c1cccs1 (stereo unspecified) > 30 µM, COc1cc(C2OCC3C(c4cc(OC)c(OC)c(OC)c4)OCC23)cc(OC)c1OC (stereo unspecified) > 30 µM, Cc1ccc2c(c1)cc1c(=O)n(CC(=O)NCCN3CCCC3)nc(C)n12 > 30 µM, CCn1c(COc2ccccc2)nnc1SCC(=O)NC1CC1 > 30 µM, CCN(CC)S(=O)(=O)c1cccc(NC(=O)COc2ccc(Cl)cc2Br)c1 > 30 µM, CCSc1ccc2nnc(-c3ccc(F)cc3)n2n1 > 30 µM, O=C(O/N=C\c1ccc(N2CCCCC2)c([N+](=O)[O-])c1)c1cccc(Cl)c1 > 30 µM, COC1=C/C(=C/c2c(N)n3cc(C)sc3nc2=O)C=CC1=O > 30 µM, NC(=O)c1ncn([C@@H]2O[C@H](CO)[C@@H](O)[C@H]2O)n1 > 30 µM, Nc1nc(NCCCN2CCOCC2)nc(Nc2ccccc2F)c1[N+](=O)[O-] > 30 µM, CC(C)OC(=O)c1nnn(-c2nonc2N)c1CSc1ccccn1 > 30 µM, Cc1ccc(NC(=O)Nc2cc(-c3ccccc3)nn2C)cc1Cl > 30 µM, Fc1ccc(CNc2nc(-c3cccnc3)nc3ccccc23)cc1 > 30 µM, Cc1ccc(C(C(=O)NC2CCCCC2)N(CC2CCCO2)C(=O)CNC(=O)c2cccs2)cc1 (stereo unspecified) > 30 µM, O=C(O)CNCC1COc2ccccc2O1 (stereo unspecified) > 30 µM, CCOC(=O)c1c(C)[nH]c(C)c1S(=O)(=O)N(C)CC(=O)Nc1cccc(F)c1 > 30 µM, CCOC(=O)c1c(C)[nH]c(C)c1S(=O)(=O)NCC(=O)Nc1ccccn1 > 30 µM, C/C(=N\NC(=O)c1nnn(-c2nonc2N)c1CN1CCc2ccccc21)c1ccccc1O > 30 µM, O=[N+]([O-])c1cc(Cl)ccc1N1CCCCC1 > 30 µM, Cc1ccc(N(c2ncnc(N)c2[N+](=O)[O-])C2CCCCC2)cc1 > 30 µM, O=C(CS(=O)(=O)c1ccccc1)c1cc2ccccc2oc1=O > 30 µM, CCc1ccc(/C=N/Nc2ncnc3nc[nH]c23)cc1 > 30 µM, CC(C)CNc1nc(N)c([N+](=O)[O-])c(NCC2CCCO2)n1 (stereo unspecified) > 30 µM, O=S(=O)(/C=C/c1ccccc1)N1CCN(Cc2ccc3c(c2)OCO3)CC1 > 30 µM, CCCCC(=O)Nc1nn(CC(C)C)c2nc3ccccc3cc12 > 30 µM, Cc1[nH]nc2c1C(c1cccs1)C1=C(CCCC1=O)N2 (stereo unspecified) > 30 µM, COc1ccc(-c2nn(-c3ccccc3)cc2/C=N/NC(=S)NC(C)C)cc1OC > 30 µM, NC(=O)c1c(NC(=O)CN2C(=O)CCC2=O)sc2c1CCCCC2 > 30 µM, Cc1ccc(-c2nnc(SCc3ccccc3F)o2)cc1 > 30 µM, Cc1ccccc1NC(=O)CSc1nnc2ccc(-c3ccncc3)nn12 > 30 µM, CC(C)OCCCN1CN(S(=O)(=O)c2cccc(Cl)c2)c2nc3ccccc3nc21 > 30 µM, Nc1nc(NCCCN2CCOCC2)nc(Nc2cccc(Cl)c2)c1[N+](=O)[O-] > 30 µM, CCOC(=O)C1=C(C)Nc2ncnn2C1c1cc(OC)ccc1OC (stereo unspecified) > 30 µM, CS(=O)(=O)N(Cc1ccccc1)c1ccc(C(=O)Nc2ccccc2Sc2ccccc2)cc1 > 30 µM, CN(C)Cc1ccc(-c2nc3cccc4c3n2CCNC4=O)cc1 > 30 µM, Cc1ccc(Nc2nc(N)c([N+](=O)[O-])c(NCCO)n2)cc1C > 30 µM, Cc1nnc(SCC(=O)Nc2nccs2)n(N)c1=O > 30 µM, COCCn1c(SCC(=O)NC(=O)NC(C)C)nc2ccccc21 > 30 µM, O=C(Cn1nnc(-c2ccccc2)n1)N/N=C/c1ccc(-c2ccc(Cl)cc2)o1 > 30 µM, CSc1nnc2ccc(-c3cccs3)nn12 > 30 µM, COc1ccc2c(c1)-c1c(ssc1=S)C(C)(C)N2C(=O)CSC1=NCCS1 > 30 µM, COc1cccc(CNS(=O)(=O)c2cc(CN3C(=O)c4cccnc4C3=O)ccc2OC)c1 > 30 µM, CCOC(=O)N1CCC(NC(=O)c2cc3sccc3n2CC)CC1 > 30 µM, Cn1c(SCc2nc(-c3ccccc3)no2)nnc1-c1ccco1 > 30 µM, Cc1ccc2sc(N3CCN(CCNC(=O)c4ccco4)CC3)nc2c1C > 30 µM, O=C(c1noc2c1CCc1ccccc1-2)N1CCOCC1 > 30 µM, CC1CCCCC1NS(=O)(=O)c1ccc2c(c1)CC(=O)N2C (stereo unspecified) > 30 µM, Cc1nn(-c2ccccc2)cc1/C=N/O > 30 µM, O=C(C1=C[C@@H](c2ccc(C(F)(F)F)cc2)C[C@@H](OCCCCO)O1)N1CCN(Cc2ccccc2)CC1 > 30 µM, O=C(C1CCCO1)N1N=C(c2ccc(Br)cc2)CC1c1ccco1 (stereo unspecified) > 30 µM, CCc1ccc(C2NC(=S)NC3=C2C(=O)CC(C)(C)C3)cc1 (stereo unspecified) > 30 µM, CCOc1cc(C2c3c(n[nH]c3C)C(=O)N2c2ccc(Br)cc2)ccc1O (stereo unspecified) > 30 µM, Cc1ccc2sc(N(CCN(C)C)C(=O)c3ccc(S(=O)(=O)N4CC(C)OC(C)C4)cc3)nc2c1C (stereo unspecified) > 30 µM, C=CCn1cc(/C=C/c2cc[n+](C)cc2)c2ccccc21 > 30 µM, CCCCCC(=O)N1CCN(S(=O)(=O)c2ccc3c(c2)OCCCO3)CC1 > 30 µM, CCCCC(=O)Nc1ncc(S(=O)(=O)c2ccc([N+](=O)[O-])cc2)s1 > 30 µM, Cc1ccc(C(=O)Nc2ncc([N+](=O)[O-])s2)cc1 > 30 µM, O=C(COc1ccc(Cl)cc1)Nc1ncc([N+](=O)[O-])s1 > 30 µM, COc1ccc(/C=C2/S/C(=N/S(=O)(=O)Cc3ccccc3)NC2=O)cc1OC > 30 µM, O=C(COc1ccccc1[N+](=O)[O-])N/N=C/c1ccc(OC(=O)c2ccco2)cc1 > 30 µM, CC(C)N1CCc2c(sc(NC(=O)Cc3ccccc3)c2C(N)=O)C1 > 30 µM, O=C(N/N=C/c1ccccn1)c1cccnc1 > 30 µM, COc1cccc2cc(CC(=O)c3ccccc3)c(=O)oc12 > 30 µM, O=C(O)c1ccccc1Nc1ccnc(C(F)(F)F)c1 > 30 µM, CC1CCCCN1c1ncnc2ccccc12 (stereo unspecified) > 30 µM, CCCn1c(SCC(=O)N2CCCCC2)nnc1-c1ccccn1 > 30 µM, Nc1nc(F)nc2c1ncn2[C@@H]1O[C@H](CO)[C@@H](O)[C@H]1O > 30 µM, CCNc1nc(N)c(C(=O)c2ccc(Cl)s2)s1 > 30 µM, O=C1NC(=Nc2ccc(O)cc2)S/C1=C/c1ccco1 > 30 µM, CCN(c1ccccc1)S(=O)(=O)c1cc(NC(=O)Nc2ccccc2C#N)ccc1Cl > 30 µM, CCOC(=O)c1c(C)oc2c(CC(=O)c3ccccc3)c(Cl)c(O)c(O)c12 > 30 µM, COc1ccccc1/C=C/C=C1\Oc2c(ccc(O)c2CN(C)C)C1=O > 30 µM, O=C(Cc1ccccc1)Nc1ccc(N2CCOCC2)cc1 > 30 µM, CC1CCN(c2nc3c(N)ncnc3n2[C@@H]2O[C@H](CO)[C@@H](O)[C@H]2O)CC1 > 30 µM, CN(C)c1cc[n+](CC(=O)N2c3ccccc3Sc3ccccc32)cc1 > 30 µM
